Measured values as given in PubChem BioAssay (NCATS).
Inconclusive results, whose numbers are uncertain, are shown with a selection of clear calls. Where the call is inconclusive, the potency comes from a doubtful curve fit. Active and inactive are the calls of the source. The call rests on the fitted dose curve; in most records, active means well fitted cell-killing curve with a large enough effect; inconclusive means small, poorly fitted or top-dose-only effect, or effect the other way; inactive means no such curve, though single readings can be large or run the other way.

Assays:
[1] = Quantitative High-Throughput drug screen in 47 multiple myeloma cell lines against the NCATS MIPE library collection: L363_DSMZ cell viability assay (AID 1918984); conditions: L363 myeloma viability, CellTiter-Glo ATP luminescence, 48 h; viability (% of control): at 45.8 µM (top of the series); further: nearly all actives have a fitted effect of over 40% in size
Summary of the method: (§1)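 Plated at 500 cells per well, myeloma lines received MIPE 4.0 compounds by pin tool. Following 48 h culture at 37 °C, CellTiter-Glo luminescence gave viability relative to DMSO and media-only controls.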

[2] = Quantitative High-Throughput drug screen in 47 multiple myeloma cell lines against the NCATS MIPE library collection: KMS34_JCRB cell viability assay (AID 1918985); conditions: KMS34 myeloma viability, CellTiter-Glo ATP luminescence, 48 h; viability, percent of control: at 45.8 µM (top of the series); further: nearly all actives have a fitted effect of over 40% in size;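 on viability, percent of control: 100% = DMSO-only wells and 0% = media-only wells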
Summary of the method: as §1

[3] = Quantitative High-Throughput drug screen in 47 multiple myeloma cell lines against the NCATS MIPE library collection: OCIMY7_PLB cell viability assay (AID 1918987); conditions: OCI-MY7 myeloma viability, CellTiter-Glo ATP, 48 h; viability (% of DMSO): at 45.8 µM (top of the series); further: nearly all actives have a fitted effect of over 65% in size
Summary of the method: as §1

[4] = Quantitative High-Throughput drug screen in 47 multiple myeloma cell lines against the NCATS MIPE library collection: U266_ATCC cell viability assay (AID 1919864); further: nearly all actives have a fitted effect of over 35% in size
Summary of the method: as §1

[5] = Quantitative High-Throughput drug screen in 47 multiple myeloma cell lines against the NCATS MIPE library collection: XG6_PLB cell viability assay (AID 1919865); conditions: XG6 myeloma viability, CellTiter-Glo ATP luminescence, 48 h; viability (% of control): at 45.8 µM (top of the series); further: nearly all actives have a fitted effect of over 40% in size;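 on viability (% of control): 100% = DMSO-only wells and 0% = media-only wells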
Summary of the method: as §1

[6] = Quantitative High-Throughput drug screen in 47 multiple myeloma cell lines against the NCATS MIPE library collection: XG1_PLB cell viability assay (AID 1919866); further: nearly all actives have a fitted effect of over 35% in size
Summary of the method: as §1

[7] = Quantitative High-Throughput drug screen in 47 multiple myeloma cell lines against the NCATS MIPE library collection: VP6_DJ cell viability assay (AID 1919867); conditions: ATP luminescence, 48 h; viability (% of DMSO): at 45.8 µM (top of the series); further: nearly all actives have a fitted effect of over 40% in size;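 on viability (% of DMSO): 100% = DMSO-only wells and 0% = wells with media alone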
Summary of the method: as §1

[8] = Quantitative High-Throughput drug screen in 47 multiple myeloma cell lines against the NCATS MIPE library collection: SKMM1_PLB cell viability assay (AID 1919863); conditions: SKMM1 myeloma viability, CellTiter-Glo ATP, 48 h; viability: stronger effect = lower value; further: nearly all actives have a fitted effect of over 35% in size
Summary of the method: as §1

[9] = Quantitative High-Throughput drug screen in 47 multiple myeloma cell lines against the NCATS MIPE library collection: OPM1_PLB cell viability assay (AID 1918989); further: nearly all actives have a fitted effect of over 40% in size;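 on viability (% of control): 100% = DMSO-only wells and 0% = media-only wells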
Summary of the method: as §1

[10] = Quantitative High-Throughput drug screen in 47 multiple myeloma cell lines against the NCATS MIPE library collection: OCIMY5_PLB cell viability assay (AID 1918988); conditions: OCI-MY5 myeloma viability, ATP luminescence, 48 h; viability, % of control: at 45.8 µM (top of the series); further: nearly all actives have a fitted effect of over 65% in size
Summary of the method: as §1
Potency means the concentration at half of the fitted maximal effect.

CNC(=O)c1cc(COc2nnc(Nc3ccc(Cl)cc3)c3ccoc23)ccn1
inactive: Potency [4]
inconclusive: Potency [1] 0.662 µM [cytotoxic, full curve, poor fit] | Potency [2] 18.7 µM [cytotoxic, partial curve] | Potency [3] 37.2 µM [cytotoxic, single point] | Potency [5] 33.2 µM [cytotoxic, single point] | Potency [6] 20.9 µM [cytotoxic, single point] | Potency [7] 23.5 µM [cytotoxic, partial curve, poor fit]

CC(C)(C)C(=O)Oc1ccc2c(c1)nc(NC(=O)c1cccc([N+](=O)[O-])c1)n2CCCO
inconclusive: Potency [1] 0.235 µM [cytotoxic, full curve, poor fit] | Potency [2] 16.6 µM [cytotoxic, partial curve, poor fit] | Potency [3] 2.64 µM [cytotoxic, partial curve, poor fit] | Potency [8] 18.7 µM [cytotoxic, partial curve, poor fit] | Potency [7] 0.0013 µM [rising, full curve, poor fit]

CN1C2CCC1CC(OC(=O)C(CO)c1ccccc1)C2 (centres undefined)
inconclusive: Potency [2] 33.2 µM [cytotoxic, single point] | Potency [4] 3.32 µM [cytotoxic, full curve, poor fit] | Potency [7] 9.35 µM [cytotoxic, full curve, poor fit]
inactive: Potency [1] | Potency [3] | Potency [6]

OC(c1cc(C(F)(F)F)nc2c(C(F)(F)F)cccc12)C1CCCCN1 (centres undefined)
inconclusive: Potency [1] 37.2 µM [cytotoxic, single point] | Potency [2] 0.0074 µM [rising, full curve, poor fit]
active: Potency [3] 10.5 µM | Potency [6] 14.8 µM

CC[C@H](NC(C)C)[C@H](O)c1ccc(O)c2[nH]c(=O)ccc12
inconclusive: Potency [2] 26.4 µM [cytotoxic, single point] | Potency [3] 2.09 µM [rising, full curve, poor fit] | Potency [8] 37.2 µM [cytotoxic, single point] | Potency [7] 0.235 µM [cytotoxic, full curve, poor fit]
inactive: Potency [1] | Potency [9]

COCCCCC(=NOCCN)c1ccc(C(F)(F)F)cc1
active: Potency [2] 3.72 µM
inactive: Potency [1]
inconclusive: Potency [3] 33.2 µM [cytotoxic, partial curve, poor fit] | Potency [8] 16.6 µM [cytotoxic, partial curve] | Potency [5] 13.2 µM [cytotoxic, partial curve, poor fit] | Potency [6] 13.2 µM [cytotoxic, partial curve, poor fit] | Potency [7] 0.0148 µM [rising, full curve, poor fit]

Cc1cccc2c1CC[C@H](CN1CCC(c3c(Cl)cccc3Cl)CC1)C[C@@H]2O
inconclusive: Potency [1] 3.72 µM [cytotoxic, full curve] | Potency [2] 23.5 µM [cytotoxic, partial curve, poor fit] | Potency [3] 20.9 µM [cytotoxic, partial curve, poor fit] | Potency [8] 33.2 µM [cytotoxic, single point] | Potency [4] 37.2 µM [cytotoxic, single point]
active: Potency [6] 20.9 µM | Potency [7] 14.8 µM

O=c1ccn([C@@H]2O[C@H](CO)[C@H](O)[C@H]2O)c(=O)[nH]1
inconclusive: Potency [1] 0.187 µM [cytotoxic, full curve, poor fit] | Potency [2] 8.33 µM [cytotoxic, partial curve, poor fit] | Potency [3] 0.0372 µM [rising, full curve, poor fit] | Potency [8] 0.0026 µM [cytotoxic, full curve, poor fit] | Potency [4] 33.2 µM [cytotoxic, single point] | Potency [7] 0.059 µM [rising, full curve, poor fit]

Sorted by SMILES length (low to high): some entries from above.
COCCCCC(=NOCCN)c1ccc(C(F)(F)F)cc1
active: Potency [2] 3.72 µM
inactive: Potency [1]
inconclusive: Potency [3] 33.2 µM [cytotoxic, partial curve, poor fit] | Potency [8] 16.6 µM [cytotoxic, partial curve] | Potency [5] 13.2 µM [cytotoxic, partial curve, poor fit] | Potency [6] 13.2 µM [cytotoxic, partial curve, poor fit] | Potency [7] 0.0148 µM [rising, full curve, poor fit]

OC(c1cc(C(F)(F)F)nc2c(C(F)(F)F)cccc12)C1CCCCN1 (centres undefined)
inconclusive: Potency [1] 37.2 µM [cytotoxic, single point] | Potency [2] 0.0074 µM [rising, full curve, poor fit]
active: Potency [3] 10.5 µM | Potency [6] 14.8 µM

CC(C)(C)C(=O)Oc1ccc2c(c1)nc(NC(=O)c1cccc([N+](=O)[O-])c1)n2CCCO
inconclusive: Potency [1] 0.235 µM [cytotoxic, full curve, poor fit] | Potency [2] 16.6 µM [cytotoxic, partial curve, poor fit] | Potency [3] 2.64 µM [cytotoxic, partial curve, poor fit] | Potency [8] 18.7 µM [cytotoxic, partial curve, poor fit] | Potency [7] 0.0013 µM [rising, full curve, poor fit]

Carrying on:

Cc1ccc(N(CC2=NCCN2)c2cccc(O)c2)cc1
inconclusive: Potency [2] 0.0012 µM [cytotoxic, full curve, poor fit] | Potency [3] 26.4 µM [cytotoxic, partial curve, poor fit] | Potency [4] 20.9 µM [cytotoxic, single point] | Potency [5] 37.2 µM [cytotoxic, single point] | Potency [6] 1.18 µM [cytotoxic, partial curve, poor fit]
inactive: Potency [7]
active: Potency [1] 11.8 µM

CS(=O)(=O)OCCCCOS(C)(=O)=O
inconclusive: Potency [1] 1.87 µM [cytotoxic, full curve, poor fit] | Potency [8] 10.5 µM [cytotoxic, partial curve, poor fit] | Potency [4] 0.0017 µM [rising, full curve, poor fit] | Potency [7] 0.0047 µM [cytotoxic, full curve, poor fit]
inactive: Potency [2] | Potency [3]

NC12CC3CC(CC(C3)C1)C2
inactive: Potency [3] | viability [8] 134%
inconclusive: Potency [1] 18.7 µM [cytotoxic, partial curve, poor fit] | Potency [2] 0.0418 µM [rising, full curve, poor fit] | Potency [9] 2.96 µM [cytotoxic, partial curve, poor fit] | Potency [6] 3.72 µM [cytotoxic, full curve]

CCCCCCCCCCCC(CC1OC(=O)C1CCCCCC)OC(=O)C(CC(C)C)NC=O (centres undefined)
inconclusive: Potency [3] 1.87 µM [cytotoxic, full curve, poor fit] | Potency [5] 7.43 µM [cytotoxic, single point]
inactive: Potency [1] | Potency [2] | Potency [9] | Potency [4] | Potency [6]

CNC1CCC(N(Cc2cccc(-c3ccncc3)c2)C(=O)c2sc3c(F)ccc(F)c3c2Cl)CC1 (centres undefined)
active: Potency [1] 11.8 µM | Potency [3] 0.0662 µM | Potency [8] 18.7 µM
inconclusive: Potency [2] 23.5 µM [cytotoxic, partial curve, poor fit]

O=C1NC(=O)C(=Cc2cccc(C(F)(F)F)c2)S1
inconclusive: Potency [1] 26.4 µM [cytotoxic, partial curve, poor fit] | Potency [3] 0.0012 µM [cytotoxic, full curve, poor fit] | Potency [9] 26.4 µM [cytotoxic, partial curve, poor fit] | Potency [7] 20.9 µM [cytotoxic, partial curve, poor fit]
inactive: Potency [2]
active: Potency [6] 16.6 µM

O=C(O)c1c(Cl)c(Cl)c(Cl)c(Cl)c1-c1c2cc(I)c(=O)c(I)c-2oc2c(I)c(O)c(I)cc12
inconclusive: Potency [1] 20.9 µM [cytotoxic, partial curve, poor fit] | Potency [2] 33.2 µM [cytotoxic, single point] | Potency [3] 0.148 µM [cytotoxic, full curve, poor fit] | Potency [8] 11.8 µM [cytotoxic, partial curve] | Potency [4] 9.35 µM [cytotoxic, full curve] | Potency [5] 4.69 µM [cytotoxic, full curve]
active: Potency [6] 5.9 µM

CS(=O)(=O)c1ccc(C2=C(c3ccccc3)C(=O)OC2)cc1
inactive: Potency [1] | Potency [2] | viability [8] 152% | Potency [5]
inconclusive: Potency [3] 0.003 µM [rising, full curve, poor fit] | Potency [4] 0.332 µM [rising, full curve, poor fit] | Potency [6] 3.72 µM [cytotoxic, partial curve, poor fit] | Potency [7] 8.33 µM [cytotoxic, full curve, poor fit]

Clc1cc(Cl)cc(CNc2ncncc2-c2ccc3c(c2)OCO3)c1
active: Potency [10] 20.9 µM
inactive: Potency [4]
inconclusive: Potency [1] 8.33 µM [cytotoxic, full curve] | Potency [2] 37.2 µM [cytotoxic, single point] | Potency [5] 3.72 µM [cytotoxic, full curve] | Potency [6] 5.9 µM [cytotoxic, full curve] | Potency [7] 13.2 µM [cytotoxic, partial curve]

O=C(NOCC(O)CO)c1cc(Br)c(F)c(F)c1Nc1ccc(I)cc1F (centres undefined)
inconclusive: Potency [2] 0.0017 µM [rising, full curve, poor fit] | Potency [10] 33.2 µM [cytotoxic, partial curve, poor fit] | Potency [9] 18.7 µM [cytotoxic, partial curve, poor fit] | Potency [8] 0.001 µM | Potency [6] 14.8 µM [cytotoxic, partial curve] | Potency [7] 0.935 µM [cytotoxic, full curve, poor fit]
inactive: Potency [1] | Potency [4]
